In paper PMC8379256, “A xanthene derivative, DS20060511, attenuates glucose intolerance by inducing skeletal muscle-specific GLUT4 translocation in mice” (Communications Biology, 2021):
Where “and” joins values, the source holds several entries; their conditions need not be identical. Equal values may be shown once. The source gives many values for each of these; only a part stands here.

Tested on: C57BL/6 mice
Test: Indirect calorimetry and exercise endurance under stepwise treadmill running
Assay type: in vivo, mouse
Details: DS20060511 30 mg/kg, individual mice 1-7, Fig. 5a
Method: The mice were acclimatized to the treadmill by allowing them to run at 10 m min^−1 for 10 min on the day before the test. On the day of the test, the mice received oral administration of 30 mg kg^−1 of DS20060511 or vehicle 15 min before they were made to run. The treadmill was started at a velocity of 10 m min^−1, with the speed increased stepwise by 2 m min^−1 every 3 min, to assess the exercise endurance capacity as described previously. Measurements of the oxygen consumption (VO2) and exhaled carbon dioxide (VCO2) under treadmill running were conducted with the ARCO-2000 magnetic-type mass spectrometric calorimeter (ARCO System, Kashiwa, Japan) connected to the treadmill chamber (MB-2000, ARCO System). The RER was calculated as the VCO2/VO2 ratio and the substrate utilization rates were calculated using Frayn’s formula[51]: rate of glucose oxidation = 4.585VCO2 − 3.226VO2; rate of fat oxidation = 1.695VO2 − 1.701VCO2. The exercise endurance capacity under treadmill running was determined by measuring the time from the start to the time until the mice ceased to run because of exhaustion, which was defined as remaining on the shocker plate for more than 10 sec. Immediately after the exercise, the blood glucose and lactate levels were measured using Glutest Every and Lactate Pro2 (ARKRAY, Kyoto, Japan), respectively, in blood samples collected from the tail vein.

COc1ccc2c(C)c(C(=O)O)ccc2c1C1C2=C(CC(C)(C)CC2=O)OC2=C1C(=O)CC(C)(C)C2 [DS20060511]
Respiratory quotient (16 min): 0.78 and 0.86 and 0.76 and 0.89
CO2 Production (VCO2) (17 min): 102.6 mL/min/kg and 80.5 mL/min/kg and 83.3 mL/min/kg and 89.8 mL/min/kg and 70.1 mL/min/kg and 76.9 mL/min/kg and 107.2 mL/min/kg
O2 Consumption (VO2) (17 min): 103.4 mL/min/kg and 100.7 mL/min/kg and 87.8 mL/min/kg and 97.5 mL/min/kg and 121.6 mL/min/kg and 126.0 mL/min/kg and 94.2 mL/min/kg
Respiratory quotient (17 min): 0.81 (2×) and 0.85 and 0.89 and 0.80 and 0.79 and 0.88
CO2 Production (VCO2) (18 min): 98.6 mL/min/kg and 80.1 mL/min/kg and 82.1 mL/min/kg and 91.5 mL/min/kg and 69.5 mL/min/kg and 79.8 mL/min/kg and 109.4 mL/min/kg
O2 Consumption (VO2) (18 min): 105.0 mL/min/kg and 107.4 mL/min/kg and 86.8 mL/min/kg and 99.6 mL/min/kg and 125.8 mL/min/kg and 122.7 mL/min/kg and 94.2 mL/min/kg
Respiratory quotient (18 min): 0.80 (3×) and 0.85 (2×) and 0.78 and 0.87
CO2 Production (VCO2) (19 min): 98.1 mL/min/kg and 81.0 mL/min/kg and 80.8 mL/min/kg and 89.6 mL/min/kg and 72.7 mL/min/kg and 77.2 mL/min/kg and 110.0 mL/min/kg
O2 Consumption (VO2) (19 min): 103.1 mL/min/kg and 107.1 mL/min/kg and 91.6 mL/min/kg and 94.9 mL/min/kg and 125.7 mL/min/kg and 121.0 mL/min/kg and 95.8 mL/min/kg
Respiratory quotient (19 min): 0.81 (2×) and 0.84 (2×) and 0.78 and 0.79 and 0.88
CO2 Production (VCO2) (20 min): 97.2 mL/min/kg and 85.4 mL/min/kg and 85.1 mL/min/kg and 87.4 mL/min/kg and 72.3 mL/min/kg and 77.3 mL/min/kg and 106.6 mL/min/kg
O2 Consumption (VO2) (20 min): 106.7 mL/min/kg and 104.2 mL/min/kg and 89.9 mL/min/kg and 95.9 mL/min/kg and 124.1 mL/min/kg and 122.6 mL/min/kg and 100.1 mL/min/kg
Respiratory quotient (20 min): 0.79 and 0.85 and 0.80 (2×) and 0.84 and 0.81 and 0.86
CO2 Production (VCO2) (21 min): 97.2 mL/min/kg and 82.4 mL/min/kg and 85.1 mL/min/kg and 92.2 mL/min/kg and 73.6 mL/min/kg and 77.1 mL/min/kg and 108.9 mL/min/kg
O2 Consumption (VO2) (21 min): 106.9 mL/min/kg and 109.6 mL/min/kg and 99.3 mL/min/kg and 95.8 mL/min/kg and 126.6 mL/min/kg and 123.0 mL/min/kg and 98.1 mL/min/kg
Respiratory quotient (21 min): 0.79 and 0.84 (2×) and 0.80 and 0.74 and 0.81 and 0.86
CO2 Production (VCO2) (22 min): 98.8 mL/min/kg and 81.4 mL/min/kg and 84.3 mL/min/kg and 88.0 mL/min/kg and 87.9 mL/min/kg and 75.3 mL/min/kg and 109.5 mL/min/kg
O2 Consumption (VO2) (22 min): 106.6 mL/min/kg and 104.4 mL/min/kg and 102.6 mL/min/kg and 94.6 mL/min/kg and 129.0 mL/min/kg and 123.2 mL/min/kg and 96.7 mL/min/kg
Respiratory quotient (22 min): 0.80 (2×) and 0.84 (2×) and 0.79 and 0.86 and 0.85
CO2 Production (VCO2) (23 min): 101.3 mL/min/kg and 87.6 mL/min/kg and 86.2 mL/min/kg and 88.9 mL/min/kg and 89.5 mL/min/kg and 73.0 mL/min/kg and 108.0 mL/min/kg
O2 Consumption (VO2) (23 min): 108.1 mL/min/kg and 105.9 mL/min/kg and 105.2 mL/min/kg and 92.7 mL/min/kg and 127.9 mL/min/kg and 126.3 mL/min/kg and 102.6 mL/min/kg
Respiratory quotient (23 min): 0.80 (2×) and 0.85 (2×) and 0.84 (2×) and 0.79
CO2 Production (VCO2) (24 min): 99.1 mL/min/kg and 91.3 mL/min/kg and 86.5 mL/min/kg and 90.9 mL/min/kg and 97.7 mL/min/kg and 73.0 mL/min/kg and 109.0 mL/min/kg
O2 Consumption (VO2) (24 min): 108.9 mL/min/kg and 108.3 mL/min/kg and 112.8 mL/min/kg and 90.9 mL/min/kg and 129.9 mL/min/kg and 119.4 mL/min/kg and 105.4 mL/min/kg
Respiratory quotient (24 min): 0.83 and 0.87 (2×) and 0.79 and 0.84 (2×) and 0.80
CO2 Production (VCO2) (25 min): 95.1 mL/min/kg and 101.9 mL/min/kg and 86.8 mL/min/kg and 92.1 mL/min/kg and 97.1 mL/min/kg and 75.6 mL/min/kg and 108.3 mL/min/kg
O2 Consumption (VO2) (25 min): 107.8 mL/min/kg and 109.0 mL/min/kg and 111.5 mL/min/kg and 96.0 mL/min/kg and 130.3 mL/min/kg and 116.8 mL/min/kg and 115.1 mL/min/kg
Respiratory quotient (25 min): 0.81 (2×) and 0.89 and 0.85 and 0.87 and 0.79 and 0.83
CO2 Production (VCO2) (26 min): 105.9 mL/min/kg and 106.7 mL/min/kg and 91.0 mL/min/kg and 89.8 mL/min/kg and 99.2 mL/min/kg and 76.4 mL/min/kg and 104.5 mL/min/kg
O2 Consumption (VO2) (26 min): 108.8 mL/min/kg and 104.5 mL/min/kg and 112.1 mL/min/kg and 95.8 mL/min/kg and 127.5 mL/min/kg and 123.0 mL/min/kg and 119.0 mL/min/kg
Respiratory quotient (26 min): 0.86 (2×) and 0.90 and 0.84 and 0.89 and 0.80 and 0.82
CO2 Production (VCO2) (27 min): 110.9 mL/min/kg and 105.4 mL/min/kg and 92.2 mL/min/kg and 92.6 mL/min/kg and 97.1 mL/min/kg and 78.4 mL/min/kg and 105.9 mL/min/kg
O2 Consumption (VO2) (27 min): 113.0 ml/min/kg and 109.1 ml/min/kg (2×) and 98.2 ml/min/kg and 129.9 ml/min/kg and 125.6 ml/min/kg and 119.1 ml/min/kg
Respiratory quotient (27 min): 0.88 and 0.89 (2×) and 0.82 (2×) and 0.85 and 0.80
CO2 Production (VCO2) (28 min): 109.8 mL/min/kg and 107.4 mL/min/kg and 89.9 mL/min/kg and 93.1 mL/min/kg and 97.2 mL/min/kg and 75.3 mL/min/kg and 104.6 mL/min/kg
O2 Consumption (VO2) (28 min): 110.8 mL/min/kg and 107.2 mL/min/kg and 112.5 mL/min/kg and 94.0 mL/min/kg and 130.4 mL/min/kg and 125.6 mL/min/kg and 121.3 mL/min/kg
Respiratory quotient (28 min): 0.87 (2×) and 0.89 and 0.81 and 0.86 and 0.80 (2×)
CO2 Production (VCO2) (29 min): 117.5 mL/min/kg and 107.4 mL/min/kg and 85.3 mL/min/kg and 89.8 mL/min/kg and 98.8 mL/min/kg and 74.5 mL/min/kg and 102.4 mL/min/kg
O2 Consumption (VO2) (29 min): 104.5 mL/min/kg and 107.5 mL/min/kg and 114.5 mL/min/kg and 92.4 mL/min/kg and 127.2 mL/min/kg and 132.2 mL/min/kg and 121.5 mL/min/kg
Respiratory quotient (29 min): 0.89 and 0.88 and 0.82 and 0.84 and 0.86 and 0.81 (2×)
CO2 Production (VCO2) (30 min): 121.6 mL/min/kg and 108.7 mL/min/kg and 93.3 mL/min/kg and 90.8 mL/min/kg and 98.4 mL/min/kg and 78.4 mL/min/kg and 97.4 mL/min/kg
O2 Consumption (VO2) (30 min): 112.8 mL/min/kg and 106.7 mL/min/kg and 115.0 mL/min/kg and 94.2 mL/min/kg and 122.8 mL/min/kg and 136.3 mL/min/kg and 122.9 mL/min/kg
Respiratory quotient (30 min): 0.89 and 0.88 and 0.83 (2×) and 0.85 and 0.86 and 0.79
